PubChem BioAssay AID493246 | Drosophila RNAi Screening Center, 2011

Aim: 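Genes fly cells need to grow and stay alive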 (primary screen)
Cell system: Drosophila Kc and S2R+ cells
Reagents: long dsRNA against Drosophila genes
Detection: 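Raw, unnormalised count of remaining cells in each well; per-plate z-scores of cell number underlie the calls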
Reading the numbers: Kc cell number and S2R+ cell number: higher = more cells remaining
Call rule: 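Counted as a hit if cell number falls by a z-score of at least 3 within its plate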
The deposit covers about 21,000 reagents; below is a random part of those with a known target gene and a result. In the full data, 429 (2%) are marked active. 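Values are raw and not normalised between plates; calls rest on per-plate z-scores that were not deposited.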 Reagents against one gene are numbered here. Names joined by + are all predicted targets of the reagent. The record does not give: the amount of reagent, the time to read-out.

| Gene | reagent | Kc cell number, rep 1 | Kc cell number, rep 2 | S2R+ cell number, rep 1 | S2R+ cell number, rep 2 | activity call |
| --- | --- | --- | --- | --- | --- | --- |
| Arr2 | 1 | 1.48e6 | 1.71e6 | 1.30e6 | 1.29e6 | inactive |
| CG8539 | 1 | 1.44e6 | 1.50e6 | 1.36e6 | 1.26e6 | inactive |
| CG16820 | 1 | 1.40e6 | 1.44e6 | 1.23e6 | 1.37e6 | inactive |
| RNaseX25 | 1 | 1.43e6 | 1.46e6 | 1.30e6 | 1.28e6 | inactive |
| Gem4b + Gem4c | 1 | 1.28e6 | 1.46e6 | 1.01e6 | 1.08e6 | inactive |
| Ugt37A3 | 1 | 1.93e6 | 1.94e6 | 1.36e6 | 1.35e6 | inactive |
| Klp98A | 1 | 1.51e6 | 1.58e6 | 1.01e6 | 1.18e6 | inactive |
| CG12746 | 1 | 1.47e6 | 1.56e6 | 1.22e6 | 1.27e6 | inactive |
| Hsp68 | 1 | 1.40e6 | 1.45e6 | 9.65e5 | 1.02e6 | inactive |
| CG30471 | 1 | 1.38e6 | 1.41e6 | 1.12e6 | 1.13e6 | inactive |
| mRpL36 | 1 | 1.40e6 | 1.35e6 | 1.09e6 | 1.18e6 | inactive |
| slmo + CG34179 | 1 | 1.30e6 | 1.45e6 | 4.34e5 | 6.92e5 | inactive |
| CG18568 | 1 | 1.42e6 | 1.49e6 | 4.69e5 | 1.08e6 | inactive |
| na | 1 | 1.79e6 | 1.76e6 | 1.06e6 | 1.21e6 | inactive |
| Gbp3 | 1 | 1.55e6 | 1.53e6 | 1.04e6 | 1.11e6 | inactive |
| ATP8 (retired record) | 1 | 1.57e6 | 1.65e6 | 1.14e6 | 1.30e6 | inactive |
| CG8611 | 1 | 1.36e6 | 1.44e6 | 9.96e5 | 1.12e6 | inactive |
| GluClalpha | 1 | 1.28e6 | 1.41e6 | 1.05e6 | 1.07e6 | inactive |
| ver | 1 | 1.35e6 | 1.49e6 | 1.21e6 | 1.43e6 | inactive |
| CG9928 | 1 | 1.58e6 | 1.68e6 | 1.29e6 | 1.46e6 | inactive |
| Ziz | 1 | 1.62e6 | 1.61e6 | 1.26e6 | 1.49e6 | inactive |
| Ziz | 2 | 1.80e6 | 1.92e6 | 1.35e6 | 1.62e6 | inactive |
| et | 1 | 1.65e6 | 1.72e6 | 1.18e6 | 1.32e6 | inactive |
| vri | 1 | 1.47e6 | 1.47e6 | 8.93e5 | 1.04e6 | inactive |
| Pp1-87B | 1 | 1.24e6 | 1.32e6 | 8.11e5 | 8.93e5 | inactive |
| MED21 | 1 | 1.66e6 | 1.62e6 | 1.16e6 | 1.29e6 | inactive |
| CG17560 | 1 | 1.50e6 | 1.45e6 | 1.07e6 | 1.16e6 | inactive |
| Zcchc7 | 1 | 1.43e6 | 1.48e6 | 1.14e6 | 1.13e6 | inactive |
| Tango11 | 1 | 4.91e5 | – | 7.24e5 | – | inactive |
| Tango11 | 2 | 4.44e5 | – | 7.43e5 | – | inactive |
| Hmr | 1 | 1.55e6 | 1.50e6 | 1.02e6 | 1.10e6 | inactive |
| Tmtc1 | 1 | 1.49e6 | 1.52e6 | 9.96e5 | 1.10e6 | inactive |
| Tmtc1 | 2 | 1.47e6 | 1.51e6 | 1.03e6 | 1.16e6 | inactive |
| Tmtc1 | 3 | 1.70e6 | 1.80e6 | 1.11e6 | 1.27e6 | inactive |
| Tmtc1 | 4 | 1.61e6 | 1.64e6 | 1.08e6 | 1.26e6 | inactive |
| Graf | 1 | 5.60e5 | – | 9.14e5 | – | inactive |
| CG9519 | 1 | 5.59e5 | – | 8.87e5 | – | inactive |
| CG34171 | 1 | 1.58e6 | 1.57e6 | 1.00e6 | 1.21e6 | inactive |
| CG15022 | 1 | 1.67e6 | 1.71e6 | 9.98e5 | 1.07e6 | inactive |
| CG30413 | 1 | 1.42e6 | 1.50e6 | 9.49e5 | 1.07e6 | inactive |
| TwdlE | 1 | 1.50e6 | 1.58e6 | 1.20e6 | 1.37e6 | inactive |
| Slob | 1 | 1.62e6 | 1.64e6 | 1.20e6 | 1.32e6 | inactive |
| mRpL41 | 1 | 1.49e6 | 1.51e6 | 1.06e6 | 1.17e6 | inactive |
| CG33080 | 1 | 1.52e6 | 1.50e6 | 1.00e6 | 1.11e6 | inactive |
| CG33080 | 2 | 1.64e6 | 1.62e6 | 1.02e6 | 1.20e6 | inactive |
| CG33080 | 3 | 1.70e6 | 1.67e6 | 1.08e6 | 1.18e6 | inactive |
| TwdlH | 1 | 1.64e6 | 1.77e6 | 1.00e6 | 1.17e6 | inactive |
| sxc | 1 | 1.67e6 | 1.62e6 | 1.24e6 | 1.27e6 | inactive |
| dpy | 1 | 1.38e6 | 1.42e6 | 1.02e6 | 1.14e6 | inactive |
| dpy | 2 | 1.40e6 | 1.48e6 | 1.03e6 | 1.14e6 | inactive |
| dpy | 3 | 1.67e6 | 1.64e6 | 1.09e6 | 1.25e6 | inactive |
| ATPsynD | 1 | 1.44e6 | 1.51e6 | 7.74e5 | 8.73e5 | inactive |
| CG14932 | 1 | 1.77e6 | 1.65e6 | 1.22e6 | 1.45e6 | inactive |
| Hr3 | 1 | 1.28e6 | 1.39e6 | 7.17e5 | 7.32e5 | active |
| Hr3 | 2 | 1.49e6 | 1.48e6 | 1.16e6 | 1.20e6 | inactive |
| CG2528 | 1 | 1.50e6 | 1.61e6 | 1.37e6 | 3.13e5 | inactive |
| CG11779 | 1 | 1.36e6 | 1.48e6 | 1.14e6 | 1.17e6 | inactive |
| CG9062 | 1 | 1.57e6 | 1.57e6 | 1.25e6 | 1.28e6 | inactive |
| orb2 | 1 | 1.35e6 | 1.44e6 | 1.21e6 | 1.18e6 | inactive |
| orb2 | 2 | 1.55e6 | 1.38e6 | 1.30e6 | 1.23e6 | inactive |
| orb2 | 3 | 1.45e6 | 1.66e6 | 1.23e6 | 1.25e6 | inactive |
| CG12723 | 1 | 1.57e6 | 1.52e6 | 1.04e6 | 1.20e6 | inactive |
| CG32225 | 1 | 1.78e6 | 1.82e6 | 1.19e6 | 1.43e6 | inactive |
| CG11570 | 1 | 1.32e6 | 1.24e6 | 1.20e6 | 1.33e6 | inactive |
| Hsc70-1 | 1 | 1.93e6 | 1.82e6 | 1.12e6 | 1.23e6 | inactive |
| CG4572 | 1 | 1.62e6 | 1.70e6 | 1.28e6 | 1.34e6 | inactive |
| CG33221 (retired record) | 1 | 1.34e6 | 1.44e6 | 1.04e6 | 1.12e6 | inactive |
| p53 | 1 | 1.51e6 | 1.56e6 | 1.18e6 | 1.24e6 | inactive |
| GLS | 1 | 1.50e6 | 1.56e6 | 1.09e6 | 1.10e6 | inactive |
| toy | 1 | 5.68e5 | – | 8.94e5 | – | inactive |
| sqd | 1 | 1.45e6 | 1.59e6 | 1.08e6 | 1.19e6 | inactive |
| CG8388 | 1 | 1.54e6 | 1.60e6 | 1.20e6 | 1.21e6 | inactive |
| epsilonCOP | 1 | 1.19e6 | 1.35e6 | 4.62e5 | 5.12e5 | inactive |
| CG6553 | 1 | 1.83e6 | 1.88e6 | 1.31e6 | 1.49e6 | inactive |
| Ankle2 | 1 | 1.63e6 | 1.69e6 | 8.81e5 | 1.00e6 | inactive |
| Ankle2 | 2 | 1.52e6 | 1.49e6 | 1.05e6 | 1.16e6 | inactive |
